No constants are given. Whether binding was seen depends on the method and setting. Binding seen in cells or lysates may run through a third protein. Some entries that bind do so weakly or less than the wild type.
Experiments:
[1] = molecular target: T1, Tripartite-motif protein-56 (TRIM56), endogenous (human (endogenous in HeLa)) (UniProt Q9BRZ2); assay: co-IP; endogenous proteins in HeLa cells, 0.5-2 h after poly-I:C stimulation; lysates precipitated with anti-TRIM56 pAb, blotted with anti-TRIF
T1 sequence: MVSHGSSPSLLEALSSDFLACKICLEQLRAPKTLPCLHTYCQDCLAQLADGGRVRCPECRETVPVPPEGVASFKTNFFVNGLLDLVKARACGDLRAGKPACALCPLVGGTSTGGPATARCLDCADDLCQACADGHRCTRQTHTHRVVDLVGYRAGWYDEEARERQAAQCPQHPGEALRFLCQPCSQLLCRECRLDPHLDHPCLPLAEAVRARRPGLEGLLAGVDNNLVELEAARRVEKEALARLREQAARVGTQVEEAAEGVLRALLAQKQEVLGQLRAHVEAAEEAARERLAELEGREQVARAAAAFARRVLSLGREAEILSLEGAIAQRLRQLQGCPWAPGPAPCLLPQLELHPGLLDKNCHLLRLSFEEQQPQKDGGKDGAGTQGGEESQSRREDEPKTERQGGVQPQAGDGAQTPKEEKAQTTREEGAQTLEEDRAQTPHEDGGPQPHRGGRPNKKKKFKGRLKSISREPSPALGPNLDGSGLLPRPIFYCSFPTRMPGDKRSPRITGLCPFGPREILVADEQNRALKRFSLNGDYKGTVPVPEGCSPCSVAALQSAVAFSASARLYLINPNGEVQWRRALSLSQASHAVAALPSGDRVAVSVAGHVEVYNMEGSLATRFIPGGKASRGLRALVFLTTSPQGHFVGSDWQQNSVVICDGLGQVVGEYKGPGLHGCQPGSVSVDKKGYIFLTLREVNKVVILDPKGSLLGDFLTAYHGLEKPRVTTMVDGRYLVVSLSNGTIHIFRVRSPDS

Sequences of proteins named here, by UniProt entry; tags and fusion partners are left off.
UniProt Q8IUC6: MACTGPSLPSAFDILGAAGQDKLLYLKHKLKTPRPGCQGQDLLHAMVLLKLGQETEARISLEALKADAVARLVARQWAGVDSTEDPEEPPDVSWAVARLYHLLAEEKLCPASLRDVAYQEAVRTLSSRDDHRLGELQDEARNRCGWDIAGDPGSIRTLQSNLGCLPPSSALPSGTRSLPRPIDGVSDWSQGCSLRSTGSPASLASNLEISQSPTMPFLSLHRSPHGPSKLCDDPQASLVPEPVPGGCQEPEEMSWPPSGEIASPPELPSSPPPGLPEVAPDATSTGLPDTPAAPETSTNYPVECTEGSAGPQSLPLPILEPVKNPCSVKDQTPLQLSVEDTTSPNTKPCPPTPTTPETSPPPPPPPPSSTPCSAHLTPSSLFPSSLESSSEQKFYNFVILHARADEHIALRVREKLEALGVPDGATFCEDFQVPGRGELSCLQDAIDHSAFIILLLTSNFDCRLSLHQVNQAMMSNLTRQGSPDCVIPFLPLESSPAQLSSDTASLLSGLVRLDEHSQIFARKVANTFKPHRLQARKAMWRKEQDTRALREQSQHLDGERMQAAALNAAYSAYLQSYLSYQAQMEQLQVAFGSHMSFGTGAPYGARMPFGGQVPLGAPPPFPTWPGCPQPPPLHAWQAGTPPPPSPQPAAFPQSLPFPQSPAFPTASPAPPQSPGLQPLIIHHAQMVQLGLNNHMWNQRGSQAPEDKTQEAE

[2] = molecular target: T1, Tripartite-motif protein-56 (TRIM56), endogenous (human (endogenous in HeLa)); assay: condition: only later than 2 h after poly-I:C stimulation; co-IP; endogenous proteins in HeLa cells, time points later than 2 h after poly-I:C stimulation; lysates precipitated with anti-TRIM56 pAb, blotted with anti-TRIF

- binding [1]: binds
- binding [2]: no binding
Substance: TIR-domain-containing adapter-inducing IFN-β (TRIF), endogenous (from UniProt Q8IUC6 1-712)

From publication PMC11067339
